Library screen at single concentrations

Chains of the proteins cited; added tags and fusions are not shown. Residues count along the entry.
UniProt P9WPC5, whole entry: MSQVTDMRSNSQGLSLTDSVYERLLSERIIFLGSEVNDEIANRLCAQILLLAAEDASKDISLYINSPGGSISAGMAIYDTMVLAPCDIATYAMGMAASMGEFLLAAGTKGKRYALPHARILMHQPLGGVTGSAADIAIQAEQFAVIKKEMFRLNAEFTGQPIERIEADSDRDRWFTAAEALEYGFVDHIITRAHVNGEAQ
UniProt P9WPC3, whole entry partner: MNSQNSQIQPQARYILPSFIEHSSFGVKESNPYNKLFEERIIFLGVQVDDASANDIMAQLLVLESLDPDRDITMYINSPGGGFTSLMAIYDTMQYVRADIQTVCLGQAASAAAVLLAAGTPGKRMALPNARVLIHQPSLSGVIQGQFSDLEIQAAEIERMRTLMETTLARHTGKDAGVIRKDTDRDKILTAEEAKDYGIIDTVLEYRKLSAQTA
UniProt Q8IDJ8, 1-583: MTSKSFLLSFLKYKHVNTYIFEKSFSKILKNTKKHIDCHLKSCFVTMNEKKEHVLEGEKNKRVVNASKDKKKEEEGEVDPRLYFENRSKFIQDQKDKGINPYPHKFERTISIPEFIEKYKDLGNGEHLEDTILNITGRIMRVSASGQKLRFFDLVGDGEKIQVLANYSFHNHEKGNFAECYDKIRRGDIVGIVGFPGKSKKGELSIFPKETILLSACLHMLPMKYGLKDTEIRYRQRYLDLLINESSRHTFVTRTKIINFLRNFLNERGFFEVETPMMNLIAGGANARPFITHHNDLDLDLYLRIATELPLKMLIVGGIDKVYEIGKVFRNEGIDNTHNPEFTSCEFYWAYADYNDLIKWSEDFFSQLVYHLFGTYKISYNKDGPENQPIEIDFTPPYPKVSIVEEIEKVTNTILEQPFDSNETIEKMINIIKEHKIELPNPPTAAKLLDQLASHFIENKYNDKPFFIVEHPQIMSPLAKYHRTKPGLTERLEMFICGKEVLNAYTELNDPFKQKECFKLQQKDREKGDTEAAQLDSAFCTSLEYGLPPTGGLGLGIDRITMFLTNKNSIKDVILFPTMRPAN
UniProt P9WFT3, whole entry: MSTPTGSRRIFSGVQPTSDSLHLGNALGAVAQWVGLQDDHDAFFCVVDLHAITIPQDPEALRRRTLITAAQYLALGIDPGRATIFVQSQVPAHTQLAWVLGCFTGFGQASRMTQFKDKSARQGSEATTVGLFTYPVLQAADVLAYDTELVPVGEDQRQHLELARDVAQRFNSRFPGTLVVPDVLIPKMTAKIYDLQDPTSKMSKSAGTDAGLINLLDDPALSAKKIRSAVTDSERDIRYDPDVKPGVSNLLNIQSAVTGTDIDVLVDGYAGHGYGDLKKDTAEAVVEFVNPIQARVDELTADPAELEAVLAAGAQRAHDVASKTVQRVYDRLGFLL
UniProt A4I591, 1-473: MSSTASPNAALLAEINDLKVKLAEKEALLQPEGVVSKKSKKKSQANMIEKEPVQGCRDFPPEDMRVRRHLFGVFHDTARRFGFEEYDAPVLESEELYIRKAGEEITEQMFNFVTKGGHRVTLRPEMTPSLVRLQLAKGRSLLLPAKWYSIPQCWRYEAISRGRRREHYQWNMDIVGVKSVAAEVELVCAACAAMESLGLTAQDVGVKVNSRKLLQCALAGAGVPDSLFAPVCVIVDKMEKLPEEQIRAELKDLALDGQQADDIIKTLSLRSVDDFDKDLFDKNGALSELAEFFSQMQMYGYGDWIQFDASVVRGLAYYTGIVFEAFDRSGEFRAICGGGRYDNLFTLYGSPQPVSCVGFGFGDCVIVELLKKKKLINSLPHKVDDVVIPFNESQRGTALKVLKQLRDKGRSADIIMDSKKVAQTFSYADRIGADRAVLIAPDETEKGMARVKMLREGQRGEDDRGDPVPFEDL
UniProt Q4DA54, 1-478: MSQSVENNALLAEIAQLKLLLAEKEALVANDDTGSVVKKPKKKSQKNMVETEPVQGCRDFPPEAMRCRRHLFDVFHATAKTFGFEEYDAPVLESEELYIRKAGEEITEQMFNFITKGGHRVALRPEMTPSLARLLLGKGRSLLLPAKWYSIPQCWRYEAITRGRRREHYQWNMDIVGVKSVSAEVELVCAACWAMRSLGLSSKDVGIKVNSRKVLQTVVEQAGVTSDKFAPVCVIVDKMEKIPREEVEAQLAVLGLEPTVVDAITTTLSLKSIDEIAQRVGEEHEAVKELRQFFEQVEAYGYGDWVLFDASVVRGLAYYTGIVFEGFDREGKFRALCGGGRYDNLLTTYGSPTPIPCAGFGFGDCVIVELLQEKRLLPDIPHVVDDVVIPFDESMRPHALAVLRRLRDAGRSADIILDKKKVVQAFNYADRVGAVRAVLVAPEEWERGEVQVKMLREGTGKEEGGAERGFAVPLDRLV

From ChEMBL document CHEMBL3988442, “University of Dundee, Small-Polar-MMV Screening Library” (2021).

Each number is a percent effect as filed. How 0% and 100% were set is not recorded. Most values in the screen are low, and negative values occur. Compounds were drawn at random from those tested, without regard to their results. A dash means the value is not listed here; it may have been measured.

ClpP1P2: 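Protease assay of ClpP1P2, read by the AMC dye that it sets free. Target: ClpP1P2, Mycobacterium tuberculosis (UniProt P9WPC5 and UniProt P9WPC3). Concentration: 50 µM. Higher reads as stronger inhibition, judged from the few compounds that gave an IC50. Most other retested compounds had strongly negative values. Size under these conditions: about 69,000 compounds, about 10 of them at 50% or above in at least one test.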
PfKRS1: 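Lysine-tRNA ligase, Plasmodium falciparum 3D7 (UniProt Q8IDJ8). Enzyme assay of the cytosolic lysyl-tRNA synthetase in 384-well plates, read by luminescence. Tested at 30 µM. Direction is inferred from only a few compounds that gave an IC50; most scored high, so higher reads as stronger inhibition. Of about 69,000 compounds tested this way, about 49 (0.071%) reached 50% or more in at least one test.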
MtTrpRS: 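Tryptophan-tRNA ligase, Mycobacterium tuberculosis (UniProt P9WFT3). Enzyme assay of tryptophanyl-tRNA synthetase; the read-out is not stated. Compounds at 10 µM. Direction is not recorded; retested compounds ran higher, which suggests that high means inhibition. Of about 65,000 compounds tested this way, about 64 (0.098%) reached 50% or more in at least one test.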
LiHisRS: 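Enzyme assay of histidyl-tRNA synthetase; the read-out is not stated. Target: Histidine-tRNA ligase, Leishmania infantum (UniProt A4I591). Compounds at 30 µM. Higher reads as stronger inhibition (inferred: compounds with an IC50 in retests scored well above the rest). The assay is labelled LdHisRS but filed under L. infantum. Of about 69,000 compounds tested this way, about 410 (0.6%) reached 50% or more in at least one test.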
TcHisRS: 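Histidine-tRNA ligase, Trypanosoma cruzi CL Brener (UniProt Q4DA54). Enzyme assay of histidyl-tRNA synthetase; the read-out is not stated. Concentration: 30 µM. Higher reads as stronger inhibition (inferred: compounds with an IC50 in retests scored well above the rest). About 69,000 compounds were tested under these conditions; 0.045% (about 31) showed 50% or more at least once.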
Leishmania in macrophages: 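Cell assay of Leishmania donovani living inside macrophages; the read-out is not stated. Compounds at 30 µM. Direction is inferred from retests: higher values go with stronger inhibition. About 69,000 compounds were tested under these conditions; 1.5% (about 1,000) showed 50% or more at least once.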

| compound | ClpP1P2 | PfKRS1 | MtTrpRS | LiHisRS | TcHisRS | Leishmania in macrophages |
|---|---|---|---|---|---|---|
| `O=C(c1cnnn1-c1ccccc1)N1CCCC(c2ccn[nH]2)C1` (stereo not drawn) | -14.35% | -5.691% | 6.427% | 15.66% | 8.458% | -11.71% |
| `CC(=O)NCCc1ccc(S(=O)(=O)Nc2ccc(C)c(F)c2)s1` | -8.48% | 7.946% | -1.971% | 11.39% | 5.603% | 20.19% |
| `CN1C(=O)CO[C@H]2CN(C(=O)Nc3ccc(F)cc3)C[C@H]21` | -3.878% | -0.322% | -4.5% | 10.81% | 3.483% | - |
| `O=C(O)CCc1cn(C2CCN(c3ncccc3Cl)CC2)nn1` | -3.73% | 0.5832% | 5.14% | 12.77% | 4.046% | 22.71% |
| `CNC(=O)[C@@H]1[C@H]2CN(Cc3ccccn3)CCN2C[C@H]1c1ccccc1` | -12.89% | 2.023% | - | -2.041% | -1.124% | - |
| `FC(F)(F)c1nc(C2CCCNC2)no1` (stereo not drawn) | -7.644% | 3.679% | -3.562% | 8.451% | 7.576% | - |
| `CCOC1CC2(CCN(C(=O)COC)CC2)c2cc(C)ccc21` (stereo not drawn) | 0.6911% | -0.8532% | -4.942% | 0% | -1.227% | -2.359% |
| `Cc1nn(C(C)C)c(C)c1S(=O)(=O)Nc1ccc(C(=O)O)c(Cl)c1` | 0.6307% | 6.761% | -2.374% | 28.57% | -3.896% | 30.26% |
| `[H][C@]12CNC[C@@]1(C(=O)NCC1(COC)CC1)CN(C1CCCC1)C2` | - | - | - | - | - | 16.38% |
| `CC(NC(=O)NCC(C)(C)O)c1ccc(-c2ccncc2)cc1` (stereo not drawn) | -4.017% | 3.402% | -0.1271% | -4.464% | 5.172% | -25.97% |
| `CN(C)C[C@@H]1CN(C(=O)c2cc(S(N)(=O)=O)ccc2F)C[C@@H]1CO` | -3.161% | 3.886% | 2.252% | 8.571% | 5.155% | 13.05% |
| `CC(=O)Nc1nc(CN2CCn3c(nnc3C3CC3)C2)cs1` | 3.598% | 2.865% | 0.8746% | 3.077% | -1.149% | 22.57% |
| `CC(Cc1ccccn1)N(C)Cc1ccc2c(c1)CCO2` (stereo not drawn) | 3.49% | 1.747% | -1.786% | 20% | 4.124% | 22.04% |
| `Cc1ccc(C(=O)O)cc1NC(=O)C1CC=CC1` | 2.69% | -2.191% | 12.41% | -9.859% | 4.459% | -3.767% |
| `CN(C)CCN1C(=O)CCCC12CCCN(C(=O)c1ccncc1)C2` (stereo not drawn) | 1.975% | 1.887% | - | 9.615% | 1.676% | - |
| `Cc1nc(CN2C(=O)COC3(CCN(Cc4nccs4)CC3)C2C)cs1` (stereo not drawn) | -4.985% | -2.092% | 1.891% | 7.619% | 1.653% | - |
| `[H][C@@]12CS(=O)(=O)C[C@]1([H])N(C(=O)c1ccc(OC)o1)CCN2C(=O)CC` | - | - | - | - | - | 13.52% |
| `Cc1occc1C(=O)N1CCC2(CCN(Cc3cccs3)C2)CC1` | -2.381% | 7.738% | 4.578% | 31.51% | 5.941% | - |
| `Cc1c(C(=O)N2CC(O)C2)nnn1-c1cccc2cnccc12` | -3.961% | -0.3326% | 0.7991% | 12.5% | 2.532% | -1.508% |
| `O=C(CCc1cc(Cl)no1)N1CCN(CCn2cncn2)CC1` | 1.279% | 0.1257% | 2.678% | 3.03% | 3.175% | 19.75% |
| `c1cncc(CN2CCCn3nnc(CN4CCCCC4)c3C2)c1` | -1.752% | 3.683% | 3.599% | 24.69% | -3.067% | -17.33% |
| `CC(=O)c1ccc(OCC(=O)NC(C)CCc2ccco2)cc1` (stereo not drawn) | -8.494% | -0.2081% | 1.935% | 11.54% | 3.333% | 0.5774% |
| `CC(C)N(C)S(=O)(=O)N(C)Cc1cnn(Cc2ccccc2)c1` | -2.538% | 2.25% | -10.45% | 11.11% | 2.041% | -9.79% |
| `CC(C)N(Cc1ccccc1)C(=O)NCCNC(=O)c1cccnc1` | -5.241% | -1.528% | 0.5093% | 10% | 6.494% | -23.99% |
| `Cc1cccc(C(=O)NCc2ccc(N3CCCCCC3)nc2)n1` | -5.296% | 0.3162% | 1.022% | 13.04% | 0.5634% | 25.94% |
| `COc1ncccc1C(=O)NCCn1cnc(C)cc1=O` | -7.685% | 7.41% | -0.6256% | 17.33% | 0.5291% | 36.15% |
| `[H][C@@]12CN(c3ccccn3)C[C@]1([H])N(Cc1ccccc1OC)C(=O)O2` | - | - | - | - | - | -16.58% |
| `COCC1CN(C(=O)Cc2ccccn2)Cc2c1cnn2CC1CC1.O=C(O)C(F)(F)F.O=C(O)C(F)(F)F` (stereo not drawn) | - | - | - | - | - | 1.583% |
| `O=C(O)C(F)(F)F.[H][C@@]12COC[C@]1([H])[C@H](OCc1csc(C)n1)CN2Cc1ccc(OC)cc1` | - | - | - | - | - | -25.61% |
| `CCC1CCCN(S(=O)(=O)c2cnc3onc(C)c3c2)C1` (stereo not drawn) | -6.883% | 4.255% | 1.078% | 23.08% | 7.216% | 5.265% |
| `O=C(CNc1cc(-n2cnnn2)ccc1F)Nc1cc(F)ccc1F` | -20.09% | -6.107% | -2.314% | -2.469% | -4.294% | -37.02% |
| `Cc1nn(C(C)C)c(C)c1NC(=O)Nc1cccnc1N1CCCC1` | 2.97% | 8.086% | 2.659% | 18.92% | 5% | 12.56% |
| `Cc1nc(CN2CCCC(Nc3ncnc4ccsc34)C2)no1` (stereo not drawn) | 8.369% | 2.446% | 0.6053% | 7.018% | 4.202% | 12.19% |

2 of the entries, repeated:

| compound | ClpP1P2 | PfKRS1 | MtTrpRS | LiHisRS | TcHisRS | Leishmania in macrophages |
|---|---|---|---|---|---|---|
| `CCOC1CC2(CCN(C(=O)COC)CC2)c2cc(C)ccc21` (stereo not drawn) | 0.6911% | -0.8532% | -4.942% | 0% | -1.227% | -2.359% |
| `O=C(c1cnnn1-c1ccccc1)N1CCCC(c2ccn[nH]2)C1` (stereo not drawn) | -14.35% | -5.691% | 6.427% | 15.66% | 8.458% | -11.71% |